# In the supplement of paper PMC8728848:
# The other results are listed elsewhere or left out.
# B1: PX9961K-bvu-480-28-480 (Bacteroides vulgatus) (protein)
# chain: NKIPTTMAFRTVTDVDNAVNGLYDLMSGSGYYGAAMFAYGDMKGDDMQSSEESGVCNTCYMFNHRPNSLNAGSLWGRPFYILREAWNILNAIAEGKIESGDEKKLNALKGETMAVIALCQFDLTRCFGYPYTKDKGASLGAPLIDHLVGTYENPPRSTVAQAYDFIIETLEEAVTLMSEEKNNGRMNKYAARALLARIYLYHDDNRKAFDLADQLIKDADTSGSYALYPHEKYVAAWSVEAKFGSESFFEIANSVDDTPGRDSWGYLLNWYGYQKGFVTQKYAEQMLADPGDVRGHLLEENKYAGKTVWWLYKLRGTDLKTAPLECNNVVLRLSEVYLIAAEAGCKLGGDAAVQGLGYLNEIVKRGNPDNEVTMADYTLDRVLDERSKELVGEGHRFFDLLRNGKTIVRKGGYHLPSVDEEVDWDFYKCVLPIPEDQFIFSPEMEQNPGYPKN
# Experiments:
# Assay in all cases: glycan array binding signal (z-score within array); higher = stronger binding
# Conditions in all cases: glycan notation: IUPAC condensed, linker removed
# [1] = target: Fuc(a1-2)Gal(b1-4)[Fuc(a1-3)]GlcNAc(b1-2)Man(a1-3)[Fuc(a1-2)Gal(b1-4)[Fuc(a1-3)]GlcNAc(b1-2)Man(a1-6)]Man(b1-4)GlcNAc(b1-4)[Fuc(a1-6)]GlcNAc
# Method in brief: (§1)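 Glycan array data were curated from 3228 arrays in the Consortium for Functional Glycomics database and kept only where the protein sequence was available. Glycan names were converted to IUPAC-condensed notation, and columns mapping to the same glycan were averaged. The binding signal is a within-array Z-score, averaged across arrays of the same protein sequence at different concentrations or buffers and across linkers. Negative Z-scores can be read as non-binding.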
# [2] = target: Fuc(a1-2)Gal(b1-4)[Fuc(a1-3)]GlcNAc(b1-2)[Fuc(a1-2)Gal(b1-4)[Fuc(a1-3)]GlcNAc(b1-4)]Man(a1-3)[Fuc(a1-2)Gal(b1-4)[Fuc(a1-3)]GlcNAc(b1-2)Man(a1-6)]Man(b1-4)GlcNAc(b1-4)GlcNAc
# Method in brief: as §1
# [3] = target: Fuc(a1-2)Gal(b1-4)[Fuc(a1-3)]GlcNAc(b1-3)Gal(b1-4)[Fuc(a1-3)]GlcNAc
# Method in brief: as §1
# [4] = target: Fuc(a1-2)Gal(b1-4)[Fuc(a1-3)]GlcNAc(b1-3)Gal(b1-4)[Fuc(a1-3)]GlcNAc(b1-3)Gal(b1-4)[Fuc(a1-3)]GlcNAc
# Method in brief: as §1
# [5] = target: Fuc(a1-2)Gal(b1-4)[Fuc(a1-3)]GlcNAc(b1-3)GalNAc
# Method in brief: as §1
# [6] = target: Fuc(a1-2)Gal(b1-4)[Fuc(a1-3)]GlcNAc(b1-3)[Neu5Ac(a2-6)Gal(b1-4)GlcNAc(b1-6)]Gal(b1-4)Glc
# Method in brief: as §1
# [7] = target: Fuc(a1-2)Gal3S(b1-4)GlcNAc
# Method in brief: as §1
# [8] = target: Fuc(a1-2)Gal6S(b1-3)GlcNAc
# Method in brief: as §1
# [9] = target: Fuc(a1-2)Gal6S(b1-3)GlcNAc6S
# Method in brief: as §1
# Fuc(a1-2)Gal6S(b1-4)Glc = target: Fuc(a1-2)Gal6S(b1-4)Glc
# Method in brief: as §1
# [10] = target: Fuc(a1-2)Gal6S(b1-4)Glc6S
# Method in brief: as §1
# Fuc(a1-2)[Gal(a1-3)]Gal = target: Fuc(a1-2)[Gal(a1-3)]Gal
# Method in brief: as §1
# [11] = target: Fuc(a1-2)[Gal(a1-3)]Gal(b1-3)GalNAc
# Method in brief: as §1
# [12] = target: Fuc(a1-2)[Gal(a1-3)]Gal(b1-3)GalNAc(b1-3)Gal(a1-4)Gal(b1-4)Glc
# Method in brief: as §1
# [13] = target: Fuc(a1-2)[Gal(a1-3)]Gal(b1-3)GlcNAc
# Method in brief: as §1
# [14] = target: Fuc(a1-2)[Gal(a1-3)]Gal(b1-3)GlcNAc(b1-2)Man(a1-3)[Fuc(a1-2)[Gal(a1-3)]Gal(b1-3)GlcNAc(b1-2)Man(a1-6)]Man(b1-4)GlcNAc(b1-4)GlcNAc
# Method in brief: as §1
# [15] = target: Fuc(a1-2)[Gal(a1-3)]Gal(b1-3)GlcNAc(b1-2)Man(a1-3)[Fuc(a1-2)[Gal(a1-3)]Gal(b1-3)GlcNAc(b1-2)Man(a1-6)]Man(b1-4)GlcNAc(b1-4)[Fuc(a1-6)]GlcNAc
# Method in brief: as §1
# [16] = target: Fuc(a1-2)[Gal(a1-3)]Gal(b1-3)GlcNAc(b1-3)GalNAc
# Method in brief: as §1
# [17] = target: Fuc(a1-2)[Gal(a1-3)]Gal(b1-3)GlcNAc(b1-6)GalNAc
# Method in brief: as §1
# [18] = target: Fuc(a1-2)[Gal(a1-3)]Gal(b1-4)Glc
# Method in brief: as §1
# [19] = target: Fuc(a1-2)[Gal(a1-3)]Gal(b1-4)GlcNAc
# Method in brief: as §1
# [20] = target: Fuc(a1-2)[Gal(a1-3)]Gal(b1-4)GlcNAc(b1-2)Man
# Method in brief: as §1
# [21] = target: Fuc(a1-2)[Gal(a1-3)]Gal(b1-4)GlcNAc(b1-2)Man(a1-3)[Fuc(a1-2)[Gal(a1-3)]Gal(b1-4)GlcNAc(b1-2)Man(a1-6)]Man(b1-4)GlcNAc(b1-4)GlcNAc
# Method in brief: as §1
# [22] = target: Fuc(a1-2)[Gal(a1-3)]Gal(b1-4)GlcNAc(b1-2)Man(a1-3)[Fuc(a1-2)[Gal(a1-3)]Gal(b1-4)GlcNAc(b1-2)Man(a1-6)]Man(b1-4)GlcNAc(b1-4)[Fuc(a1-6)]GlcNAc
# Method in brief: as §1
# [23] = target: Fuc(a1-2)[Gal(a1-3)]Gal(b1-4)GlcNAc(b1-3)GalNAc
# Method in brief: as §1
# [24] = target: Fuc(a1-2)[Gal(a1-3)]Gal(b1-4)GlcNAc(b1-3)[Fuc(a1-2)[Gal(a1-3)]Gal(b1-4)GlcNAc(b1-6)]GalNAc
# Method in brief: as §1
# [25] = target: Fuc(a1-2)[Gal(a1-3)]Gal(b1-4)GlcNAc(b1-6)GalNAc
# Method in brief: as §1
# [26] = target: Fuc(a1-2)[Gal(a1-3)]Gal(b1-4)[Fuc(a1-3)]Glc
# Method in brief: as §1
# [27] = target: Fuc(a1-2)[Gal(a1-3)]Gal(b1-4)[Fuc(a1-3)]GlcNAc
# Method in brief: as §1
# [28] = target: Fuc(a1-2)[Gal(a1-3)]Gal(b1-4)[Fuc(a1-3)]GlcNAc(b1-3)GalNAc
# Method in brief: as §1
# [29] = target: Fuc(a1-2)[Gal(a1-4)]Gal(b1-4)GlcNAc
# Method in brief: as §1
# [30] = target: Fuc(a1-2)[GalNAc(a1-3)]Gal
# Method in brief: as §1
# [31] = target: Fuc(a1-2)[GalNAc(a1-3)]Gal(b1-3)GalNAc(a1-3)[Fuc(a1-2)]Gal(b1-4)GlcNAc
# Method in brief: as §1
# [32] = target: Fuc(a1-2)[GalNAc(a1-3)]Gal(b1-3)GalNAc(b1-3)Gal(a1-4)Gal(b1-4)Glc
# Method in brief: as §1
# [33] = target: Fuc(a1-2)[GalNAc(a1-3)]Gal(b1-3)GlcNAc
# Method in brief: as §1
# [34] = target: Fuc(a1-2)[GalNAc(a1-3)]Gal(b1-3)GlcNAc(b1-2)Man(a1-3)[Fuc(a1-2)[GalNAc(a1-3)]Gal(b1-3)GlcNAc(b1-2)Man(a1-6)]Man(b1-4)GlcNAc(b1-4)GlcNAc
# Method in brief: as §1
# [35] = target: Fuc(a1-2)[GalNAc(a1-3)]Gal(b1-3)GlcNAc(b1-2)Man(a1-3)[Fuc(a1-2)[GalNAc(a1-3)]Gal(b1-3)GlcNAc(b1-2)Man(a1-6)]Man(b1-4)GlcNAc(b1-4)[Fuc(a1-6)]GlcNAc
# Method in brief: as §1
# [36] = target: Fuc(a1-2)[GalNAc(a1-3)]Gal(b1-3)GlcNAc(b1-3)GalNAc
# Method in brief: as §1
binder,measurement,setting,value
B1,glycan array binding signal (z-score),[1],0.056
same,glycan array binding signal (z-score),[2],0.069
same,glycan array binding signal (z-score),[3],1.38
same,glycan array binding signal (z-score),[4],0.101
same,glycan array binding signal (z-score),[5],0.48
same,glycan array binding signal (z-score),[6],-0.921
same,glycan array binding signal (z-score),[7],0.169
same,glycan array binding signal (z-score),[8],-0.375
same,glycan array binding signal (z-score),[9],0.05
same,glycan array binding signal (z-score),Fuc(a1-2)Gal6S(b1-4)Glc,0.599
same,glycan array binding signal (z-score),[10],-0.007
same,glycan array binding signal (z-score),Fuc(a1-2)[Gal(a1-3)]Gal,0.527
same,glycan array binding signal (z-score),[11],0.128
same,glycan array binding signal (z-score),[12],1.37
same,glycan array binding signal (z-score),[13],-0.605
same,glycan array binding signal (z-score),[14],-0.095
same,glycan array binding signal (z-score),[15],-0.336
same,glycan array binding signal (z-score),[16],0.431
same,glycan array binding signal (z-score),[17],-0.313
same,glycan array binding signal (z-score),[18],-0.108
same,glycan array binding signal (z-score),[19],-0.62
same,glycan array binding signal (z-score),[20],1.22
same,glycan array binding signal (z-score),[21],-0.256
same,glycan array binding signal (z-score),[22],-0.328
same,glycan array binding signal (z-score),[23],-0.904
same,glycan array binding signal (z-score),[24],-0.606
same,glycan array binding signal (z-score),[25],0.218
same,glycan array binding signal (z-score),[26],0.151
same,glycan array binding signal (z-score),[27],-0.093
same,glycan array binding signal (z-score),[28],-0.75
same,glycan array binding signal (z-score),[29],0.458
same,glycan array binding signal (z-score),[30],0.169
same,glycan array binding signal (z-score),[31],0.026
same,glycan array binding signal (z-score),[32],-0.401
same,glycan array binding signal (z-score),[33],-0.589
same,glycan array binding signal (z-score),[34],-0.403
same,glycan array binding signal (z-score),[35],-0.488
same,glycan array binding signal (z-score),[36],0.507

# Pulled one by one from above, 3 records:
binder,measurement,setting,value
B1,glycan array binding signal (z-score),[19],-0.62
same,glycan array binding signal (z-score),[18],-0.108
same,glycan array binding signal (z-score),[4],0.101
